Measurements published in paper PMC9942973.
These are yes or no findings as the source states them, for the method shown. Binding seen in cells or lysates may run through a third protein. Here binding means that the protein was enriched with, or labelled near, the bait; the list need not be complete.

Chains of the proteins cited; added tags and fusions are not shown.
UniProt P16788: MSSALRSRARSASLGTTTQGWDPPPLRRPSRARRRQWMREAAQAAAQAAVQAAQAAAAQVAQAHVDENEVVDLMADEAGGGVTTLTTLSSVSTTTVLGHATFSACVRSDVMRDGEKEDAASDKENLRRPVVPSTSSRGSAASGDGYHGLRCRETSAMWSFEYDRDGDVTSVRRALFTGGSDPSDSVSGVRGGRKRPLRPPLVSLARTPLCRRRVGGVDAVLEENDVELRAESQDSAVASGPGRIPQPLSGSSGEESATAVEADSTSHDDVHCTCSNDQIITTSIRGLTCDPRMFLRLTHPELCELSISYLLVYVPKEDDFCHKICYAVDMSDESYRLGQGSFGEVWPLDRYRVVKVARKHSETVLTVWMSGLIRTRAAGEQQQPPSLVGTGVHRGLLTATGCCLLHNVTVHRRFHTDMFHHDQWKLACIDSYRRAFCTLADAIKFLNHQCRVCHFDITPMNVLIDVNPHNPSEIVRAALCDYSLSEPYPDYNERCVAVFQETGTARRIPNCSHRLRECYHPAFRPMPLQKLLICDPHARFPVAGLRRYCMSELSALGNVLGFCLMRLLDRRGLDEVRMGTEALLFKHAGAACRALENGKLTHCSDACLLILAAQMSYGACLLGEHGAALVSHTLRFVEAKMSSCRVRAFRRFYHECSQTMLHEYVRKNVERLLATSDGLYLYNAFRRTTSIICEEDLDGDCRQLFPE

Biological target: pUL97-FLAG (HCMV pUL97, wild type, FLAG-tagged) (HCMV (human cytomegalovirus)) (UniProt P16788)
Assay: affinity purification with mass spectrometry; host proteins enriched with ectopically expressed pUL97-FLAG in NPCs by immunoprecipitation with anti-FLAG antibody, then LC-MS/MS

B1: regulatory factor X 7 (RFX7) (protein, UniProt Q2KHR2 1-1460)
chain: MAEEQQQPPPQQPDAHQQLPPSAPNSGVALPALVPGLPGTEASALQHKIKNSICKTVQSKVDCILQEVEKFTDLEKLYLYLQLPSGLSNGEKSDQNAMSSSRAQQMHAFSWIRNTLEEHPETSLPKQEVYDEYKSYCDNLGYHPLSAADFGKIMKNVFPNMKARRLGTRGKSKYCYSGLRKKAFVHMPTLPNLDFHKTGDGLEGAEPSGQLQNIDEEVISSACRLVCEWAQKVLSQPFDTVLELARFLVKSHYIGTKSMAALTVMAAAPAGMKGITQPSAFIPTAESNSFQPQVKTLPSPIDAKQQLQRKIQKKQQEQKLQSPLPGESAAKKSESATSNGVTNLPNGNPSILSPQPIGIVVAAVPSPIPVQRTRQLVTSPSPMSSSDGKVLPLNVQVVTQHMQSVKQAPKTPQNVPASPGGDRSARHRYPQILPKPANTSALTIRSPTTVLFTSSPIKTAVVPASHMSSLNVVKMTTISLTPSNSNTPLKHSASVSSATGTTEESRSVPQIKNGSVVSLQSPGSRSSSAGGTSAVEVKVEPETSSDEHPVQCQENSDEAKAPQTPSALLGQKSNTDGALQKPSNEGVIEIKATKVCDQRTKCKSRCNEMLPGTSTGNNQSTITLSVASQNLTFTSSSSPPNGDSINKDPKLCTKSPRKRLSSTLQETQVPPVKKPIVEQLSAATIEGQKQGSVKKDQKVPHSGKTEGSTAGAQIPSKVSVNVSSHIGANQPLNSSALVISDSALEQQTTPSSSPDIKVKLEGSVFLLDSDSKSVGSFNPNGWQQITKDSEFISASCEQQQDISVMTIPEHSDINDLEKSVWELEGMPQDTYSQQLHSQIQESSLNQIQAHSSDQLPLQSELKEFEPSVSQTNESYFPFDDELTQDSIVEELVLMEQQMSMNNSHSYGNCLGMTLQSQSVTPGAPMSSHTSSTHFYHPIHSNGTPIHTPTPTPTPTPTPTPTPTPTSEMIAGSQSLSRESPCSRLAQTTPVDSALGSSRHTPIGTPHSNCSSSVPPSPVECRNPFAFTPISSSMAYHDASIVSSSPVKPMQRPMATHPDKTKLEWMNNGYSGVGNSSVSGHGILPSYQELVEDRFRKPHAFAVPGQSYQSQSRHHDTHFGRLTPVSPVQHQGATVNNTNKQEGFAVPAPLDNKGTNSSASSNFRCRSVSPAVHRQRNLSGSTLYPVSNIPRSNVTPFGSPVTPEVHVFTNVHTDACANNIAQRSQSVPLTVMMQTAFPNALQKQANSKKITNVLLSKLDSDNDDAVRGLGMNNLPSNYTARMNLTQILEPSTVFPSANPQNMIDSSTSVYEFQTPSYLTKSNSTGQINFSPGDNQAQSEIGEQQLDFNSTVKDLLSGDSLQTNQQLVGQGASDLTNTASDFSSDIRLSSELSGSINDLNTLDPNLLFDPGRQQGQDDEATLEELKNDPLFQQICSESMNSMTSSGFEWIESKDHPTVEMLG
binding: binds
